Taken from: PubChem BioAssay AID1159578 (Peter MacCallum Cancer Centre, 2015)

Assay: 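Genome-wide hunt for genes controlling movement of lymphatic endothelial cells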 (primary screen)
Cell system: human lymphatic endothelial cells
Reagents: siRNA pool against human genes, 40 nM
Time to read-out: 48 h after transfection
Detection: 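High-content imaging of dye-stained cells in a scratch assay measures filled wound area and nuclei per well; duplicate means given as ratio to mock and robust z-score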
Scale: migration robust z-score: higher = faster migration into the scratch; nuclei per well: higher = more cells in the well
Hit rule: 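Migration changed when robust z exceeds 2 or falls below -2 and mean nuclei number is at least 3300; otherwise not called changed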
Calls: active = migration changed; inactive = no migration change, or too few cells
The deposit covers about 18,000 reagents; below is an unselected part. About 1,030 of them (5.7%) count as active. 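Inactive calls also include pools with fewer than 3300 nuclei, whose migration was not assessed.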 The raw values are shown without normalisation. Not all columns of the deposit are shown.

PORCN gave migration robust z-score -0.68; migration class with cell-count check migration z between -2 and 2; enough cells; nuclei per well, duplicate mean 6175; inactive.
SLC30A8 showed migration robust z-score 0.18; migration class with cell-count check migration z between -2 and 2; enough cells; nuclei per well, duplicate mean 5692; inactive.
TMEM40 gave migration robust z-score 0.8; migration class with cell-count check migration z between -2 and 2; enough cells; nuclei per well, duplicate mean 6232; inactive.
SHD showed migration robust z-score -1.25; migration class with cell-count check migration z between -2 and 2; enough cells; nuclei per well, duplicate mean 3752; inactive.
ARR3 gave migration robust z-score 0.92; migration class with cell-count check migration z between -2 and 2; enough cells; nuclei per well, duplicate mean 6523; inactive.

Taken from above:
Under “Outcome”, TMEM40 is entered as inactive
For “nuclei per well, duplicate mean”, PORCN has 6175

The results go on.
CA3 gave migration robust z-score -1.09; migration class with cell-count check migration z between -2 and 2; enough cells; nuclei per well, duplicate mean 5573; inactive.
For SAMSN1, the entry reads migration robust z-score 0.44; migration class with cell-count check migration z between -2 and 2; enough cells; nuclei per well, duplicate mean 5590; inactive.
MAGEL2 showed migration robust z-score 1.02; migration class with cell-count check migration z between -2 and 2; enough cells; nuclei per well, duplicate mean 6402; inactive.
Silencing of IQCF3 gave: migration robust z-score 0.7; migration class with cell-count check migration z between -2 and 2; enough cells; nuclei per well, duplicate mean 6130; inactive.
Against CBX8 the deposit lists migration robust z-score -1.79; migration class with cell-count check migration z between -2 and 2; enough cells; nuclei per well, duplicate mean 3682; inactive.
For PPIH the deposit lists migration robust z-score 1.35; migration class with cell-count check migration z between -2 and 2; enough cells; nuclei per well, duplicate mean 6278; inactive.
Knock-down of MEGF11 gave: migration robust z-score -2.47; migration class with cell-count check migration z below -2; enough cells; nuclei per well, duplicate mean 4442; active.
